In paper PMC11558077:
Results are given in words; binding and its absence hold for the method and conditions named. In cells and extracts the contact can be indirect. Some entries that bind do so weakly or less than the wild type.

By UniProt entry, the sequences of proteins in these tests, tags left out.
UniProt P0DTC4: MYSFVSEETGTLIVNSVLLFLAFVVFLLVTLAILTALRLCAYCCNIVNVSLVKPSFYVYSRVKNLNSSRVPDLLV

T1: USP33 in HEK293T cell lysate (Figure 1D, Figure 1F) (human) (UniProt Q8TEY7)
T1 sequence: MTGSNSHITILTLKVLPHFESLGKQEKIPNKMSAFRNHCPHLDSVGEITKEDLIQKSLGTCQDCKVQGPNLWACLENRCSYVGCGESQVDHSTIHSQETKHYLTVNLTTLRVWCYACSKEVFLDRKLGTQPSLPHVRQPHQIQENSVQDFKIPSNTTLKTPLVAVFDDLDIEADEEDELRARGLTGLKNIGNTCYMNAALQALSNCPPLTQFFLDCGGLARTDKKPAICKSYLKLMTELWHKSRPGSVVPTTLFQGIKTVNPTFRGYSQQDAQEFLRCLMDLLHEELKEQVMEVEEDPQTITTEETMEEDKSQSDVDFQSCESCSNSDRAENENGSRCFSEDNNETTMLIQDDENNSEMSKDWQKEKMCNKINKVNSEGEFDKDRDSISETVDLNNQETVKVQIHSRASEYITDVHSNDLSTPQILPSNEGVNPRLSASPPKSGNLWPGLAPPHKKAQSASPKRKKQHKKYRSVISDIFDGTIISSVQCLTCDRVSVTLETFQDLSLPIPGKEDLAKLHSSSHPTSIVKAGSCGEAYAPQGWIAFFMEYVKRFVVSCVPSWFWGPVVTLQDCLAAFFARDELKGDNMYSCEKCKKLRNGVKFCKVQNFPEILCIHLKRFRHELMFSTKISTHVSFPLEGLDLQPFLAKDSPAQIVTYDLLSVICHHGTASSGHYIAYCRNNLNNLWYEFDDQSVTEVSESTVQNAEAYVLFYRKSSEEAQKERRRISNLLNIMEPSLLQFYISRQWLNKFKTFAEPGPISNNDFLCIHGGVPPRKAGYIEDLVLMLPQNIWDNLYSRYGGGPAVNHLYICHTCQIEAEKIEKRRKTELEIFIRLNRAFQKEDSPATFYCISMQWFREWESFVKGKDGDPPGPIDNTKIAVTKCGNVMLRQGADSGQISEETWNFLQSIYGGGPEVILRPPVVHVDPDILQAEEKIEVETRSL

B1: USP33 in HEK293T cell lysate (Figure 1D, Figure 1F) (enzyme, UniProt Q8TEY7 1-942)
chain: T1 sequence

Tests used:
[1] = biological target: T1, USP33 in HEK293T cell lysate (Figure 1D, Figure 1F) (human); experiment: co-IP
[2] = biological target: GST-E protein (SARS-CoV-2) (UniProt P0DTC4); experiment: pull-down; only the target purified

Molecule | binding [1] | binding [2]
SARS-CoV-2 envelope (E) protein, tagged, from a transfected plasmid (from UniProt P0DTC4 1-75) | binds | 
B1 |  | binds
